Measurements from paper PMC10163288.
The other results are listed elsewhere or left out.

B1: il2ra_site2_3nfp_normal_mot_HHH_b1_02297_000000279_0001_41_58_H_._HHH_b1_05936_0001_0000200007_0000001_0 (protein)
chain: SSSSDEEVRQLIEEAERLLEEGNPEEAFRVAAEASRIAFELNDFELFAAVNELAERIIRGSSSSS
B2: il2ra_site2_3nfp_normal_mot_HHH_b2_03679_af2_000000123_0001_41_56_H_._HHH_b1_07302_0001_0000700056_0000001_0 (protein)
chain: SSSSNTEEYLRAALALLERAVRRGDEEFVEKLFHLIHLAVHSARDPEAEERLEELYERFRSSSSS
B3: il2ra_site1_2b5i_sap_10_mot_HHH_b2_00109_af2_000000107_0001_39_57_H_._HHH_b1_08498_af2_0001_0000400018_0000001_0_0001_af2pred_dldesign_0_af2pred (protein)
chain: SSSSSEKVRRLIEELDRLLAAGELEKARELAKELAKVAAEEDDVELRTEAIKRIKRVELASSSSS
B4: il2ra_site2_2erj_sap_26_mot_6ec3e94b46d95805cdcdc10c0c108f03_0001_af2_000000040_0001_36_50_H_._HHH_b1_01725_0001_0000100002_0000001_0_0001 (protein)
chain: SSSSDESEEVLEEVEKELREARERGDLELLFEIAREALELLAKLNDPEAAEELDRLFMRLSSSSS
B5: il2ra_site2_2erj_normal_mot_HHH_b1_02566_000000063_0001_42_58_H_._HHH_b2_02780_0001_0000200010_0000001_0 (protein)
chain: SSSSSDTEVYEKVARLLAELQEIDDEEELRELLREAQELAEEVNSEALKRYVEFAERLLSSSSSS
B6: il2ra_site1_1z92_sap_10_mot_HHH_b2_05172_af2_000000284_0001_1_18_H_._HHH_b1_07609_0001_0000100008_0000001_0_0001_af2pred_dldesign_0_af2pred (protein)
chain: SSSSSSNVDDEIYDLFLKTHHSSKEERKKLLEEALALAKAAKNSKIVAELEKYLEMLKSSSSSSS
B7: il2ra_site2_2erj_sap_28_mot_HHH_b2_02500_af2_000000175_0001_19_35_H_._HHH_b1_04651_0001_0000200043_0000001_0_0001 (protein)
chain: SSSSNEDLKRAYELANEITRLLAEGDEEEVEKLLEELRELAERLKSPSLEEMVESLERKISSSSS
B8: il2ra_site1_3nfp_normal_mot_HHH_b1_05690_000000100_0001_1_15_H_._11405e7faed88c9d08fdae67291e590b_0001_1_0001_0000100004_0000001_0 (protein)
chain: SLERYVERAEELDPRLEELLKRALELIQELGDPELARLLIKVVALLELGDPETEKEAEELLRQIE
B9: il2ra_site1_1z92_normal_mot_01209686ea234b34325f918445e6eade_0001_af2_000000154_0001_18_33_H_._HHH_b1_01021_0001_0000100004_0000001_0_af2pred_0001_1_af2pred_swa … (protein)
chain: SSSSSDELEEFIEELVKELGLDEEAKETLERLLEKLQEQGVSERAIRRALERMARRMRGSSSSSS
B10: il2ra_site1_1z92_normal_mot_0a69b5c9b02373fb877a90f2b4b0d8e1_0001_1_af2_000000257_0001_17_32_H_._26f414d7b340708b6e9383f836a3294b_0001_af2_0001_0000200006_00000 … (protein)
chain: PEALEELFERSREQGIPPRSVARALLDALRRLGIPPEEVEELVRQVLERLLGDPEEAREVLEEAR
B11: il2ra_site1_1z92_normal_mot_HHH_b2_07758_000000290_0001_1_17_H_._HHH_b1_00264_0001_0000600035_0000001_0_af2pred_0001_af2pred_1_swapped (protein)
chain: SSSSSREERFLRRAVELAVKLAGLSPEQEEELEELARELAERGVDPLEASRILDKKASELSSSSS
B12: il2ra_site1_2b5i_sap_11_mot_HHH_b2_06044_000000134_0001_1_20_H_._HHH_b2_00948_af2_0001_0000100015_0000001_0_0001 (protein)
chain: SSSSDADERVQELFRRASELFRKGNPEEAQELLEEALELARERNDPRLVKDLEFILERIRSSSSS
B13: il2ra_site1_3nfp_normal_mot_HHH_b2_05933_af2_000000220_0001_1_18_H_._HHH_b1_07122_af2_0001_0000100001_0000001_0_af2pred_0001_af2pred_1 (protein)
chain: SSSSSNKEAARLLRQAAEAARNGNPEEAEELLEEALRIAEEAGNELLVRFIEQALKLVRALSSSS
B14: il2ra_site1_3nfp_normal_mot_ems_3hC_921_af2_000000143_0001_22_40_H_._HHH_b1_03028_0001_0000400037_0000001_0_af2pred_0001_af2pred (protein)
chain: SSSSSNKLEEFQRLAKEAHKIEDREELEEVLEELEKIAEEANSPVAELLVERLRKKAEELSSSSS
B15: il2ra_site1_3nfp_sap_12_mot_HHH_b1_01231_af2_000000170_0001_1_16_H_._HHH_b2_05578_af2_0001_0000100006_0000001_0_0001_af2pred_0001_af2pred_1 (protein)
chain: SSSSSEELEELRELIRELQELREEGDEERAREVAERAEELAERLNDRSARRSVRIAKKLLSSSSS
B16: il2ra_site1_1z92_sap_7_mot_HHH_b2_05172_af2_000000284_0001_1_18_H_._HHH_b2_00134_af2_0001_0000200012_0000001_0_0001_af2pred_0001_af2pred_1 (protein)
chain: NIRESVEELLRELGDPEEVAKELIEYARRAGSPPEFVRKFVRAILRRLLNIPPEEAEEIVRRAEK
B17: il2ra_site1_1z92_normal_mot_add8a691351788dd45ba4deda1838316_0001_1_000000225_0001_37_51_H_._HEEHE_0134_0001_0000100007_0000001_0_af2pred_0001_af2pred_1 (protein)
chain: SDEELVRKAIEDIARIVGVPSVTVEVKDGEIEVRFEGNDQKARTAAKIVEKLLKAAGLTAEVEVE
B18: il2ra_site2_2erj_sap_19_mot_HHH_b1_03702_000000266_0001_38_56_H_._d18551acd042526603bd7f0d0960009a_0001_0001_0000200008_0000001_0_0001_af2pred_0001_1_af2pred_sw … (protein)
chain: SSSSDEELRRRVEEFAEELVKELGLSRSDKLLLLSFALALVERGASEEWIEELLKRLAKNASSSS

target: il2ra, P01589; assay: yeast display titration

Apparent Kd, inactive:
B1 no binding seen
B2 no binding seen
B3 no binding seen
B4 no binding seen
B5 no binding seen
B6 no binding seen
B7 no binding seen
B8 no binding seen
B9 no binding seen
B10 no binding seen
B11 no binding seen
B12 no binding seen
B13 no binding seen
B14 no binding seen
B15 no binding seen
B16 no binding seen
B17 no binding seen
B18 no binding seen

Quoted at random: two entries already listed
Apparent Kd, inactive:
B7 no binding seen
B16 no binding seen
